The list shows a part of the results. Many values rest on one well or one pass, so single values are uncertain.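 Imaging used 1,536-well plates; nuclei positive for cleaved PARP by antibody were divided by total DNA-stained nuclei to yield the apoptosis fraction. Doses for screening kept most cells viable, and cell lines differ markedly in resting and induced cleaved-PARP levels.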
Legend:
Assay in all cases: cleaved PARP positive nuclei fraction relative to DMSO control; melanoma cells; higher = more apoptosis
Settings in all cases: library dose: low library concentration; 72 h
WM115 = system: WM115
WM1716 = system: WM1716
WM1745 = system: WM1745
WM3526 = system: WM3526
WM3619 = system: WM3619
WM451Lu = system: WM451Lu

SMILES | cleaved PARP positive nuclei fraction (WM115) | cleaved PARP positive nuclei fraction (WM1716) | cleaved PARP positive nuclei fraction (WM1745) | cleaved PARP positive nuclei fraction (WM3526) | cleaved PARP positive nuclei fraction (WM3619) | cleaved PARP positive nuclei fraction (WM451Lu)
COC(=O)c1sccc1S(=O)(=O)Nc1ccc(Nc2ccccc2)cc1OC + Cc1cc(SCc2sc(-c3ccc(C(F)(F)F)c(F)c3)nc2C)ccc1OCC(=O)O [GW0742] (first compound 1 µM, partner dose 2 µM) | 77.2% | 110% | 110% | 44.5% | 545% | 86.4%
C/C(O)=C(\C#N)C(=O)Nc1cc(Br)ccc1Br + CC(C)CCN1c2nc(Nc3cc(F)c(O)c(F)c3)ncc2N(C)C(=O)C1C [BID1870] (first compound 2 µM, partner dose 0.2 µM) | 238% | 64.4% | 265% | 86.9% | 175% | 182%
CC(C)(C)c1cnc(CSc2cnc(NC(=O)C3CCNCC3)s2)o1 + C/C(O)=C(\C#N)C(=O)Nc1cc(Br)ccc1Br [LFM-A13] (first compound 0.01 µM, partner dose 2 µM) | 478% | 140% | 128% | 73.7% | 79.5% | 40.8%
N.N.[Cl][Pt][Cl] [cisplatin] + O=C(O)c1ccc(-c2c[nH]c3ncc(-c4ccccc4)cc23)cc1C1CCCC1 [GSK650394] (first compound 1.6 µM, partner dose 0.16 µM) | 106% | 85.2% | 91.1% | 365% | 126% | 493%
N.N.[Cl][Pt][Cl] [cisplatin] + Nc1cccc2c1CN(C1CCC(=O)NC1=O)C2=O [lenalidomide] (first compound 1.6 µM, partner dose 1 µM) | 67.8% | 62.1% | 98.7% | 158% | 109% | 85.4%
Cn1cc(C2=C(c3cn(C4CCN(Cc5ccccn5)CC4)c4ccccc34)C(=O)NC2=O)c2ccccc21 [Enzastaurin] + Clc1ccc(Nc2nnc(Cc3ccncc3)c3ccccc23)cc1 [vatalanib] (first compound 0.8 µM, partner dose 2 µM) | 17.6% | 85.2% | 88.6% | 38.5% | 87.6% | 268%
CCN(CC)CCNC(=O)c1c(C)[nH]c(/C=C2\C(=O)Nc3ccc(F)cc32)c1C [sunitinib] + C/C(O)=C(\C#N)C(=O)Nc1cc(Br)ccc1Br [LFM-A13] (first compound 0.4 µM, partner dose 2 µM) | 69.8% | 87.6% | 105% | 98% | 87.2% | 118%
COc1cc(N2CCC(N3CCN(C)CC3)CC2)ccc1Nc1ncc(Cl)c(Nc2ccccc2S(=O)(=O)C(C)C)n1 + O=C(Oc1ccc([N+](=O)[O-])cc1)N1CCC(C(O)(c2ccc3c(c2)OCO3)c2ccc3c(c2)OCO3)CC1 [JZL184] (first compound 0.08 µM, partner dose 1 µM) | 32.8% | 63.6% | 117% | 154% | 103% | 93.1%
Cc1ccc(Nc2nccc(N(C)c3ccc4c(C)n(C)nc4c3)n2)cc1S(N)(=O)=O [Pazopanib] + C/C(O)=C(\C#N)C(=O)Nc1cc(Br)ccc1Br [LFM-A13] (first compound 0.4 µM, partner dose 2 µM) | 165% | 200% | 86.2% | 68.8% | 289% | 83%
C[C@]12O[C@H](C[C@]1(O)CO)n1c3ccccc3c3c4c(c5c6ccccc6n2c5c31)CNC4=O [Lestaurtinib] + O=C(Nc1cccc(Cl)c1)Nc1ncc(CCNc2ncnc3ccsc23)s1 [SNS314] (first compound 0.004 µM, partner dose 0.0008 µM) | 50% | 145% | 81.6% | 48.4% | 75.5% | 85.1%
C[C@]12O[C@H](C[C@]1(O)CO)n1c3ccccc3c3c4c(c5c6ccccc6n2c5c31)CNC4=O [Lestaurtinib] + C=C(c1ccc(C(=O)O)cc1)c1cc2c(cc1C)C(C)(C)CCC2(C)C [Bexarotene] (first compound 0.004 µM, partner dose 2 µM) | 129% | 213% | 107% | 57.8% | 82.1% | 85%
Cn1cc(C2=C(c3cn(C4CCN(Cc5ccccn5)CC4)c4ccccc34)C(=O)NC2=O)c2ccccc21 [Enzastaurin] + O=C(Nc1ccccc1)c1cc([N+](=O)[O-])ccc1Cl [GW9662] (first compound 0.8 µM, partner dose 2 µM) | 96.5% | 27.7% | 92.8% | 42.8% | 96.6% | 40%
C[As](C)SC[C@H](NC(=O)CC[C@H](N)C(=O)O)C(=O)NCC(=O)O [Darinaparsin] + Cc1ccc(NC(=O)c2cccc(N(C)C)c2)cc1NC(=O)c1ccc(O)cc1 [ZM336372] (first compound 0.4 µM, partner dose 2 µM) | 84.1% | 67.1% | 80.8% | 60.5% | 66.5% | 96.6%
C[C@]12O[C@H](C[C@]1(O)CO)n1c3ccccc3c3c4c(c5c6ccccc6n2c5c31)CNC4=O [Lestaurtinib] + COc1ccc(-c2ccc3c(N4CCOCC4)nc(N4C[C@@H](C)O[C@@H](C)C4)nc3n2)cc1CO [KU0063794] (first compound 0.004 µM, partner dose 0.02 µM) | 120% | 50.4% | 92.6% | 110% | 110% | 71.3%
COc1cc([C@@H]2c3cc4c(cc3[C@@H](O[C@@H]3O[C@@H]5CO[C@@H](C)O[C@H]5[C@H](O)[C@H]3O)[C@H]3COC(=O)[C@H]23)OCO4)cc(OC)c1O [etoposide] + C[As](C)SC[C@H](NC(=O)CC[C@H](N)C(=O)O)C(=O)NCC(=O)O [Darinaparsin] (first compound 0.02 µM, partner dose 0.4 µM) | 77.9% | 63.6% | 89.5% | 122% | 163% | 27%
N#Cc1c(O)c2c(-c3ccc(-c4ccccc4O)cc3)csc2[nH]c1=O + C/C(O)=C(\C#N)C(=O)Nc1cc(Br)ccc1Br [LFM-A13] (first compound 2 µM, partner dose 2 µM) | 64.6% | 86.2% | 103% | 166% | 97.9% | 94.1%
Cn1sc(=O)n(Cc2ccccc2)c1=O + C[As](C)SC[C@H](NC(=O)CC[C@H](N)C(=O)O)C(=O)NCC(=O)O [Darinaparsin] (first compound 0.4 µM, partner dose 0.4 µM) | 103% | 37.9% | 100% | 23.5% | 107% | 93.8%
N#CC[C@H](C1CCCC1)n1cc(-c2ncnc3[nH]ccc23)cn1 [ruxolitinib] + O=C(Oc1ccc([N+](=O)[O-])cc1)N1CCC(C(O)(c2ccc3c(c2)OCO3)c2ccc3c(c2)OCO3)CC1 [JZL184] (first compound 1 µM, partner dose 1 µM) | 52.8% | 53% | 96.4% | 131% | 93% | 20.3%
COc1cc([C@@H]2c3cc4c(cc3[C@@H](O[C@@H]3O[C@@H]5CO[C@@H](C)O[C@H]5[C@H](O)[C@H]3O)[C@H]3COC(=O)[C@H]23)OCO4)cc(OC)c1O [etoposide] + N.N.[Cl][Pt][Cl] [cisplatin] (first compound 0.02 µM, partner dose 1.6 µM) | 278% | 53% | 93.5% | 97.2% | 120% | 103%
Cn1c(=O)n(-c2ccc(C(C)(C)C#N)cc2)c2c3cc(-c4cnc5ccccc5c4)ccc3ncc21 + C/C(O)=C(\C#N)C(=O)Nc1cc(Br)ccc1Br [LFM-A13] (first compound 0.004 µM, partner dose 2 µM) | 152% | 184% | 193% | 88.4% | 113% | 300%
Cn1cc(C2=C(c3cn(C4CCN(Cc5ccccn5)CC4)c4ccccc34)C(=O)NC2=O)c2ccccc21 [Enzastaurin] + Cc1cc(N2CCOCC2)cc2[nH]c(-c3c(NC[C@@H](O)c4cccc(Cl)c4)cc[nH]c3=O)nc12 [BMS536924] (first compound 0.8 µM, partner dose 0.2 µM) | 83.4% | 43.4% | 238% | 58.8% | 101% | 93.5%
COc1cc([C@@H]2c3cc4c(cc3[C@@H](O[C@@H]3O[C@@H]5CO[C@@H](C)O[C@H]5[C@H](O)[C@H]3O)[C@H]3COC(=O)[C@H]23)OCO4)cc(OC)c1O [etoposide] + C/C(O)=C(\C#N)C(=O)Nc1cc(Br)ccc1Br [LFM-A13] (first compound 0.02 µM, partner dose 2 µM) | 175% | 489% | 82.9% | 225% | 122% | 71.5%
C[C@]12O[C@H](C[C@]1(O)CO)n1c3ccccc3c3c4c(c5c6ccccc6n2c5c31)CNC4=O [Lestaurtinib] + c1cc(-c2cnn3cc(-c4ccc(OCCN5CCCCC5)cc4)cnc23)ccn1 [Dorsomorphin] (first compound 0.004 µM, partner dose 0.4 µM) | 174% | 24.6% | 98.4% | 189% | 85.9% | 91.1%
C[As](C)SC[C@H](NC(=O)CC[C@H](N)C(=O)O)C(=O)NCC(=O)O [Darinaparsin] + COc1ccc2c(c1)CCC1C2CCC2(C)C(NCCCCCCN3C(=O)C=CC3=O)CCC12 [U73122] (first compound 0.4 µM, partner dose 0.4 µM) | 76.7% | 149% | 112% | 57.3% | 90.8% | 85.6%

Individual results from the results shown:
C[C@]12O[C@H](C[C@]1(O)CO)n1c3ccccc3c3c4c(c5c6ccccc6n2c5c31)CNC4=O [Lestaurtinib] + C=C(c1ccc(C(=O)O)cc1)c1cc2c(cc1C)C(C)(C)CCC2(C)C [Bexarotene] (first compound 0.004 µM, partner dose 2 µM) | cleaved PARP positive nuclei fraction (WM3526): 57.8%
CCN(CC)CCNC(=O)c1c(C)[nH]c(/C=C2\C(=O)Nc3ccc(F)cc32)c1C [sunitinib] + C/C(O)=C(\C#N)C(=O)Nc1cc(Br)ccc1Br [LFM-A13] (first compound 0.4 µM, partner dose 2 µM) | cleaved PARP positive nuclei fraction (WM3526): 98%

From the supplement of paper PMC4604168 (melanoma cell lines)
